Laboratory results: patent publication US10688085B2, “Use of statin-based drug for treatment of EML4-ALK-positive non-small cell lung cancer progressing on ALK inhibitor” (University-Industry Foundation, Yonsei University, priority 2016, dated 2020)
For at least one compound, name, drawing or mass did not settle the structure.

Experiments:
[1] = tested on: cell line resistant to the ALK inhibitor; test: Evaluation of antitumor efficacy of statin-based drugs; conditions: cell line resistant to the ALK inhibitor versus parental
Source text: The results are illustrated in FIG. 4A.

H3122 CR pool cells = test: FDA approved drug library growth inhibition selection, resistant cells; format: cell-based; conditions: resistant cell line versus parental cells
[2] = tested on: cell line that had acquired resistance to crizotinib; test: Colony formation analysis; format: cell-based; conditions: crizotinib-resistant cell line versus parental
[3] = tested on: cell line that had acquired resistance to crizotinib; test: Cell cycle analysis; format: cell-based; conditions: crizotinib-resistant cell line
[4] = tested on: p21, cleaved PARP, and cleaved caspase 3; test: Western blot of p21 and apoptosis-related proteins, crizotinib-resistant cell lines; format: cell-based; conditions: agent alone
YAP [5] = test: Western blot of YAP phosphorylation, crizotinib-resistant cell line; format: cell-based; conditions: agent alone
Source text: YAP is accumulated in the nucleus to form a complex with TEAD when phosphorylation is suppressed, and is known as an oncogene which promotes the excessive proliferation of cancer cells and the metastasis of cancer by inducing the expression of a gene associated with cancer. In addition, YAP as a transcription factor has been reported to be involved even in the expression of EGFR and an EGFR ligand. Recently, it has been reported that the mevalonate pathway which is an important mechanism in cancer cell metabolism regulates YAP activity, and particularly, geranylgeranylation may directly affect YAP activity. […] The results are illustrated in FIG. 7. FIGS. 7A and 7B identify the expression pattern of YAP when GGPP and […] are treated, respectively through a western blot, and FIG. 7C illustrates whether YAP moves into the nucleus through an immunocytochemistry analysis.

YAP [6] = test: Immunocytochemistry (cell fluorescence staining) of YAP in the nucleus; format: cell-based; conditions: crizotinib-resistant cell line
[7] = tested on: p21, cleaved caspase 3, PARP, YAP; test: Western blot of p21, cleaved caspase 3, PARP and YAP, ceritinib-resistant cell line; format: cell-based; conditions: cell line resistant to ceritinib

SMILES | antitumor efficacies [1] | effects of inhibiting the proliferation of cells (H3122 CR pool cells) | colony formation [2] | G1 arrest in the cell cycle [3] | expression of cleaved PARP [4] | expression of cleaved caspase 3 [4] | expression of p21 [4] | phosphorylation of YAP (YAP [5]) | expression of YAP in the nucleus (YAP [6]) | YAP activity (phosphorylation of YAP induced) [7] | expression of cleaved caspase 3 [7] | expression of p21 [7]
CCC(C)(C)C(=O)O[C@H]1C[C@@H](C)C=C2C=C[C@H](C)[C@H](CC[C@@H]3C[C@@H](O)CC(=O)O3)[C@H]21 [simvastatin] | specifically exhibited antitumor efficacies against a cell line resistant to the ALK inhibitor |  |  |  |  |  |  |  |  |  |  | 
CC(C)n1c(/C=C/C(O)CC(O)CC(=O)O)c(-c2ccc(F)cc2)c2ccccc21 (stereo not shown) [fluvastatin] | specifically exhibited antitumor efficacies against a cell line resistant to the ALK inhibitor |  |  |  |  |  |  |  |  |  |  | 
COCc1c(C(C)C)nc(C(C)C)c(/C=C/[C@@H](O)C[C@@H](O)CC(=O)O)c1-c1ccc(F)cc1 [cerivastatin] |  | inhibiting the proliferation of cells specific to a resistant cell line rather than parental cells | specifically blocked colony formation only in a cell line that had acquired resistance to crizotinib | strongly induced G1 arrest | concentration-dependently increased | concentration-dependently increased | concentration-dependently increased | increased | suppressed | suppressed | concentration-dependently increased | concentration-dependently increased
